Two substances from paper PMC5700102, “Primer synthesis by a eukaryotic-like archaeal primase is independent of its Fe-S cluster” (Nature Communications, 2017) can be followed below.

No constants are given. Whether binding was seen depends on the method and setting. Binding calls can cover weak binding; strength is not graded here.

The target of assay [1] is T1, PriS E34C (S. solfataricus) (UniProt Q97Z83).
T1 sequence: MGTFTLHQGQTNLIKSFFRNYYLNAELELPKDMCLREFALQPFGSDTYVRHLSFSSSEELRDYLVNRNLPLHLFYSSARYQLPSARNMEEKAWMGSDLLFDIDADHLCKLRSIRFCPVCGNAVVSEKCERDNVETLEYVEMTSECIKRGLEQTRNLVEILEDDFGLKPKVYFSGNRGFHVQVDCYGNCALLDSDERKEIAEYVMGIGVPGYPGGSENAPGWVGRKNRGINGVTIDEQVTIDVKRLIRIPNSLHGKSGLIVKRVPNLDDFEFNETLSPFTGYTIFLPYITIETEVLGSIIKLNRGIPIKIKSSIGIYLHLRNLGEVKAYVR
The assay can be described thus: cross-linking; BMOE cross-linking of 5 μM purified cysteine double mutant primase (PriSLX or Chimera), 25 °C, 1 h, 25 mM Hepes pH 7.2, 150 mM NaCl, 5 mM MnCl2; SDS-PAGE, Coomassie; also with RNA/DNA or 5'-pppRNA/DNA (less cross-linked product with 5'-pppRNA/DNA); both purified.

For assay [2], the target named is T2, PriL, regulatory subunit of the heterotrimeric primase PriSLX from S. solfataricus (S. solfataricus) (UniProt Q9UWW1).
T2 sequence: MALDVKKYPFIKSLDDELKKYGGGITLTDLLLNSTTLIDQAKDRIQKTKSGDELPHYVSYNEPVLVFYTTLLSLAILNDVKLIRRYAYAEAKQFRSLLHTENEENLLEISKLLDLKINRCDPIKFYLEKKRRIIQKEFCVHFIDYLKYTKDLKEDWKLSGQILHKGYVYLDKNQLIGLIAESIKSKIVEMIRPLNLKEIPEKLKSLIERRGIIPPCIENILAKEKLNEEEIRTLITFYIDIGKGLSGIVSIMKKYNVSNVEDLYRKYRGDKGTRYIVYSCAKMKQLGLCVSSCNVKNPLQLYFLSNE
Briefly: crystal structure; PriSLX heterotrimer, 2.9 Å; crystallised with 1 mM MnCl2, 2 mM AMPCPP and an RNA-DNA hybrid (not seen in the map); two heterotrimers in the asymmetric unit; both purified.

Take PriX K110C (S. solfataricus): the binding entry in assay [1] is recorded as “binds”.

Turning to “PriX, third subunit of the heterotrimeric primase PriSLX from S. solfataricus”, in assay [2], the binding entry was “binds”.
